Results are given in words; binding and its absence hold for the method and conditions named. Binding seen in cells or lysates may run through a third protein. Here binding means that the protein was enriched with, or labelled near, the bait; the list need not be complete.
B1: Srsf5 (protein, UniProt O35326 1-269)
chain: MSGCRVFIGRLNPAAREKDVERFFKGYGRIRDIDLKRGFGFVEFEDPRDADDAVYELDGKELCSERVTIEHARARSRGGRGRGRYSDRFSSRRPRNDRRNAPPVRTENRLIVENLSSRVSWQDLKDFMRQAGEVTFADAHRPKLNEGVVEFASYGDLKNAIEKLSGKEINGRKIKLIEGSKRHRSRSRSRSRTRSSSRSRSRSRSRRSKSYSRSRSRSRSRSKSRSGSRSPVPEKSQKRGSSSRSKSPASVDRQRSRSRSRSRSVDSGN
B2: Srsf7 (protein, UniProt Q8BL97 1-267)
chain: MRSSARGRPLQAATAFFLSLFFFLRRFERGFWLWGGDSETKVYVGNLGTGAGKGELERAFSYYGPLRTVWIARNPPGFAFVEFEDPRDAEDAVRGLDGKVICGSRVRVELSTGMPRRSRFDRPPARRPFDPNDRCYECGEKGHYAYDCHRYSRRRRSRSRSRSHSRSRGRRYSRSRSRSRGRRSRSASPRRSRSVSLRRSRSASLRRSRSGSIIGSRYFQSRSRSRSRSRSISRPRSSRSKSRSPSPKRSRSPSGSPHRSASPERMD
B3: AATF (protein, UniProt Q9JKX4 1-526)
chain: MAAPQPLALQLEQLLNPRPREADPEADPEEATRARVIDRFDEGEEEKDDLAVSSIRKLAPVSLLDTDKRYSGKTTSRKAWKEDHWEQALPSSSDNEASDEGGSEDGDSEGLGLEEISEDVDEDLEDNKISDEGGSEDGDSEGLGLEEFSEDVEEDLEGEDEEDREEDRNSEDDGVVAAFSSVKVSEEVEKGRAVKNQIALWDQLLEGRIKLQKALLTTNQLPQPDVFPVFKDKGGPEFASALKNSHKALKALLRSLVDLQEELLFQYPDTRHIVNGAKPNTESEEISSEDDELVGEKKKQRKAPPKRKLEMEDYPSFMAKRFADFTIYRNHTLQKWHDKTKLASGKLGKGFGAFERSILTQIDHIMMDKERLLRRTQTKRSAYRVLGKPEPVPEPVAETLPGEPETLPQGPANAHLRDLDEEIFDDDDFYHQLLRELIERKTSSLDPNDQVAMGRQWLAIQKLRSKIRKKVDRKASKGRKLRFHVLSKLLSFMAPIDHTAMSDDARTELFRSLFGQLNPPDADRGK
B4: LAS1L (protein, UniProt A2BE28 1-776)
chain: MDRVWRAWDGQSFKENQPESPSARGIVVSWLSRAEWEQVTVYLFCDDHKLQQYALNRITVWRSRLGNELPLAVASTADLVRCKLIDAAGTLGTDELRLLYGMALVRFVNLISERKTKCSNLPLKYLAQEVNIPDWIVELRHNLTHKKMPHINECRRGCYFVLNWLQKTYWSRQLEGSLKETWELDEDQLDAEDPEEEEREIIADDVLEEIPEPQDDDKDEELAVEDDANTKGNEEVASHPEPSSRHKELYEKARELLVSYEEEQFKVLEKHRHLLQAIKVWNNLSPRVQCILEELKSISWENRDAVLDAFLDDGFLIPTFEQLAALQIEYEDGQTEVQKGEVTEPNSHKNIDLNEVLVPKPFSQFWQPLLRGLHSQTFTQALLERMFSELSTVGSTGIRPTYILRWTVELIVANTKTGRNARRFSASQWEARKSWRLFNCSATLDWPQVIESCLGSPCWASPQLLQVVFKAMGQVLPDEEQEKLLRVCSIYTQNGENGLAKAIEGSSSSSTGKAPYTLDTLHEDLQPPGTNCESEESIQQKEQGNLKDVKQEEKKENEEEEKEEEEMEEEEEEEEEEKEEEEEEQEQEEHQEEEQEEEEEEENQKVFQDQMEADVEESDDVEEEEEVDDEEEDEDDDYDDDEEEDRMEVGAFSLAQGSSVFENTRTTSRKREALQGSAWQVSSEDVRWGTFPLGRLPGQTEDPAELMLDNYDTMYLLDQPVIEHRLEPQKSKSSTLSLCCGGSNTNSSSSSSSGNMEGLLWNQGQMHGLKAGLQLF
B5: Srrm 1 (protein, UniProt Q52KI8 1-946)
chain: MDAGFFRGTSAEQDNRFSNKQKKLLKQLKFAECLEKKVDMSKVNLEVIKPWITKRVTEILGFEDDVVIEFIFNQLEVKNPDSKMMQINLTGFLNGKNAREFMGELWPLLLSAQENIAGIPSAFLELKKEEIKQRQIEQEKLASLKKQDEDKDKRDKEEKESSREKRERSRSPRRRKSRSPSPRRRSSPVRRERKRSHSRSPRHRTKSRSPSPAPEKKEKSPELPEPSVRMKDSSVQEATSTSDILKAPKPEPVPEPKEPSPEKNSKKEKEKTRPRSRSRSKSRSRTRSRSPSHTRPRRRHRSRSRSYSPRRRPSPRRRPSPRRRTPPRRMPPPPRHRRSRSPGRRRRRSSASLSGSSSSSSSSRSRSPPKKPPKRTSSPPRKTRRLSPSASPPRRRHRPSSPATPPPKTRHSPTPQQSNRTRKSRVSVSPGRTSGKVTKHKGTEKRESPSPAPKPRKVELSESEEDKGSKMAAADSVQQRRQYRRQNQQSSSDSGSSSTSEDERPKRSHVKNGEVGRRRRHSPSRSASPSPRKRQKETSPRMQMGKRWQSPVTKSSRRRRSPSPPPARRRRSPSPAPPPPPPPPPPRRRRSPTPPPRRRTPSPPPRRRSPSPRRYSPPIQRRYSPSPPPKRRTASPPPPPKRRASPSPPPKRRVSHSPPPKQRSPTVTKRRSPSLSSKHRKGSSPGRSTREARSPQPNKRHSPSPRPRAPQTSSPPPVRRGASASPQGRQSPSPSTRPIRRVSRTPEPKKIKKTAMATQRNIRRVSKSPKADSLSRAASPSPQSVRRVSSSRSVSGSPEPAAKKPPAPPSPVQSQSPSTNWSPAVPAKKAKSPTPSLSPARNSDQEGGGKKKKKKKDKKHKKDKKHKKHKKHKKEKAVTIATPATAAPAAVSAATTTSAQEEPAAAPEPRKETESEAEDDNLDDLERHLREKALRSMRKAQVSPQS

By UniProt entry, the sequences of proteins in these tests, tags left out. Where a name states a change or a piece, a line headed by the entry shows the natural chain unless it says otherwise. Chains listed by the source or under a name are the forms on record and can include a tag or linker.
Psip1/p52 (endogenous) (mouse (endogenous in NIH 3T3 and MEFs)) (Q99JF8, form named): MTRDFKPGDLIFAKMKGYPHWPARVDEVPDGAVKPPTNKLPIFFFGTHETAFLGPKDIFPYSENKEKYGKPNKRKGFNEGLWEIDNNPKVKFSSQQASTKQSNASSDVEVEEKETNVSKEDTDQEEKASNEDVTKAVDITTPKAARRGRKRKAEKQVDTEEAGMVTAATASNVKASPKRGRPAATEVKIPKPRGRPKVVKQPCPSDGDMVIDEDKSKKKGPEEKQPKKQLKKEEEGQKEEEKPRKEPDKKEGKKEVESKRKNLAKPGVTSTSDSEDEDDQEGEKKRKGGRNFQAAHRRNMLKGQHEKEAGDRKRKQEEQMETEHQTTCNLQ

Each binder was assayed against Psip1/p52 (endogenous) (mouse (endogenous in NIH 3T3 and MEFs)) (UniProt Q99JF8) (assay: affinity purification with mass spectrometry; A300-847 IP from NIH 3T3 nuclear extract, washes with 200 mM KCl; gel bands analysed by MS/MS (Mascot)).

binding, binds:
B1, B2, B3, B4, B5

The binders below were run against Psip1/p52 (endogenous) (mouse (endogenous in NIH 3T3 and MEFs)) (UniProt Q99JF8) (assay: affinity purification with mass spectrometry; A300-847 IP from wild-type MEF nuclear extract; gel region of 25-40 kDa analysed by mass spectrometry).

binding, binds:
B1
